# Source: PubChem BioAssay AID1347426 (Functional Genomics Laboratory (NCATS/FGL), 2020)
# Out of some 31,000 sequences screened, about 1,400 (4.5%) were called active.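 Rule for the calls: active = median seed-adjusted z-score above 1 or below -1; inactive = the rest.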 Some of the results follow.
# Assay: Novel Modifiers of Survival Motor Neuron (SMN) Protein: Gene Identification via Genome-wide siRNA Screen;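 note: luminescence tracks full-length SMN protein made from the SMN2 reporter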
# Conditions: HEK293T SMN2-luciferase reporter, siRNA knockdown, 72 h; actives lie on both sides
# In short: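 Luciferase signal, proportional to full-length SMN made from an SMN2 cDNA reporter in stable HEK293T cells, was read 72 h after siRNA reverse transfection. Values were expressed as MAD scores after non-targeting-control normalization and log10 conversion; seed analysis flagged off-targets.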
row,Sequence,median seed-adjusted z-score
1,CGGCCUAACUUUCAAGACATT against SDK2,inactive: 0.908
2,CCUUCAAUAAUACCUCCAATT against ZNF691,inactive: 0.28
3,GCUUAGUCGAAUACGGAGATT against CHL1,inactive: 0.1
4,GGUUUAAGCCGAAAGCACATT against KCNAB3,inactive: 0.0697
5,GCAUUGCCGAGAUCCAUGATT against PIK3R2,inactive: 0.421
6,GCUGCCGACUAAGCAUUGATT against PAX8,inactive: 0
7,GAUCUUAGCUGGACGAGAATT against STOML3,inactive: -0.0711
8,GGAUGAAGAGAUACCUUUUTT against ZNF772,inactive: 0.817
9,CGCAUCAUCUCAACAAUCATT against KCNK2,inactive: 0.257
10,GACCGGCAUUGAUCAAUCATT against MYO1B,inactive: 0.903
11,GGAUAAAUAUGCAUUGGAATT against PTPN21,inactive: 0
12,GGAGAGUGUUUGAUAUGUUTT against EIF4A2,inactive: 0
13,GGAUGGAGACAACGACAAATT against ANGPT2,inactive: -0.163
14,GGACAUACGCAGCACCAUATT against ZMAT1,inactive: -0.123
15,CGGGAUUUAUAGGCAAUGATT against RNASEH1,inactive: -0.0205
16,CAGGUGAUCUGGACCAAGATT against LCP1,inactive: -0.386
17,AGUGCAACGUGUUCGUCUATT against PPP2R2D,inactive: -0.118
18,CAUUCGGCCUCUACCCAAATT against DNAJC13,inactive: -0.12
19,CUCUCUACACGACUACAAATT against JUNB,inactive: -0.224
20,GGAUAACUGGAACUAUACATT against TNKS,inactive: 0.193
21,UGCUGACUUUUAACCCACATT against CDK4,inactive: 0.346
22,GCAUGAGGUUCACCACCAATT against FIBCD1,inactive: -0.0249

row,Sequence,median seed-adjusted z-score
1,GGGUUGAUCAGCUUAGUCATT against PPP1R13B,inactive: 0.0943
2,ACAUAGCGACGGUAGUGAATT against STK32B,inactive: 0.683
3,GCAAUGCACUGACGGAUAUTT against EFEMP1,inactive: 0.0157
4,CCACGGAUCUGGUCAGAAUTT against PHYH,inactive: 0.208
5,CAUUAGUAGUCAGCAAGUATT against THAP2,inactive: -0.273
6,GAUCGUGCUCAUUAAUUCATT against SLC29A1,inactive: 0.117
7,CCAGCGGAAUUUAUGCGUATT against JAK2,inactive: 0.163
8,CCUCCAAUCAAAUCAGUCATT against KCNK2,inactive: 0.257
9,CCAUCGUAUGUAACACUGUTT against CLSTN3,inactive: 0
10,CACUGGAUCGUAUCUACAATT against ANAPC2,inactive: -0.116
11,CUUCAUAUUUGACACCUAUTT against SLC25A26,inactive: 0.0213
12,UGUGGACUGAGGUACCCAATT against SNRPD2,inactive: -0.849
13,GGCAGAUAUUUAAGCCUAUTT against HDAC2,active: -1.27
14,GAACAUGUCUUUAACGGAUTT against TJP2,inactive: 0.0668
15,CACGGUCUGUUCUCAGAUUTT against MXD4,inactive: 0.688
16,CAGAAGAACUGAGCUAUUUTT against GOSR1,inactive: -0.252
17,GCAUCGACAUGGUUUCCGATT against GABRB3,inactive: 0.0757
18,AGCUCACGCUGUGCAUGUGTT against TREX2,inactive: -0.918
19,GGUUGAUUACUCUAACAAATT against PLK2,inactive: -0.419
20,CAAGGACUUCUGUAAUUUUTT against DMRT2,inactive: -0.344
21,GCUUGCACUUAAUCUCACATT against LAMB2,active: 1.12
22,GCAGUGCUCCGUAGGAUCATT against PNCK,inactive: 0

row,Sequence,median seed-adjusted z-score
1,GCGAGCCGCUUAUGUGGAATT against TCF21,inactive: -0.15
2,GACUAUAAGUUUUCGGAGUTT against ACOT9,inactive: 0.58
3,GAAAUAGGGCAGAAACAGATT against PARVB,inactive: -0.0102
4,GGAUGACGAUUGUUUAUCATT against BCL11A,inactive: 0.297
5,AGAUGUUAUUUAUUGAGCUTT against PKIG,inactive: 0.0916
6,GGAGAUAACUUUCGUAUCATT against CBLB,inactive: 0
7,CCUUUGCUCCGGAAUCUCUTT against SOX12,inactive: 0.478
8,GGAUAGUGAGGAUAAGGAATT against PPP1R15A,inactive: 0.539
9,CGUGUUCCAUAUAGAGGAATT against CAPN1,inactive: 0.282
10,ACGAUCCUCUCAAUCAAAATT against MBD2,inactive: -0.067
11,GUUCGAAUGUCACCAGUUATT against RTCD1,inactive: 0.0794
12,GCUCUGUGAUUAGAUUGAATT against HEY2,inactive: -0.0831
13,GCGCAUGCAUAAGAAUCGATT against ZNF687,inactive: 0
14,UCUCUUACCUGGGACCUCATT against FUT3,inactive: 0.11
15,GGACACAUCUCGGACAGCATT against KLK9,inactive: -0.476
16,CCAUGAGUGUGACUCUCAATT against ZNF599,inactive: 0.0896
17,CGGCCUGUUCCUCUACGUATT against SLC39A4,inactive: 0.0304
18,CUUUUUACGUGAGCGUAUATT against NAP1L1,inactive: 0.263
19,AGACCCUGAUUGUGCGUAUTT against SYT6,inactive: -0.072
20,AGCCUCUCAUAGUACCUGATT against FBLN2,inactive: 0.176
21,AGCGUAAGCUGAUUGAGCATT against THRA,inactive: 0.13
22,GCCUCGUGAAGAACACUCATT against CYP1A2,inactive: 0

# Reformatted with bars between the fields: part of the list above.
row | Sequence | median seed-adjusted z-score
10 | ACGAUCCUCUCAAUCAAAATT against MBD2 | inactive: -0.067
13 | GCGCAUGCAUAAGAAUCGATT against ZNF687 | inactive: 0

# Two records picked at random from those above:
row,Sequence,median seed-adjusted z-score
15,GGACACAUCUCGGACAGCATT against KLK9,inactive: -0.476
17,CGGCCUGUUCCUCUACGUATT against SLC39A4,inactive: 0.0304

# Continued:

row,Sequence,median seed-adjusted z-score
1,GGUUUCAUCCUAGAUCAAATT against MS4A5,inactive: 0.226
2,UCUCCUUCUUCGGAACGAATT against SCAMP5,inactive: -0.303
3,CUACCUUAUGAAUACUAUUTT against TM9SF4,inactive: -0.0191
4,GGAGAUAAGUGUAAGUUCUTT against ZC3H15,inactive: 0.191
5,CUACAGAAUUUCUUGCGCATT against RASSF3,inactive: -0.323
6,GGAACGAGGUGUCAGCUCUTT against RFXANK,inactive: -0.0665
7,GGCGAUGUUUCGUUGUAAATT against AFF1,inactive: -0.0394
8,CAGUCGGUCUUUAAGGAUUTT against PYGB,inactive: -0.292
9,AGAUGAUGGUUGAACAUCATT against PPP1R1A,inactive: -0.529
10,CCAGCGCCAUUUAUGAGGATT against HM13,inactive: 0.134
11,CCACAAGUCUAAAAUCGUATT against ATP2A2,inactive: 0.314
12,GCAUUACACCUGUAGUGUATT against TOMM22,inactive: 0.486
13,GCUAUGCAGUGGAUGCUUATT against GPR143,inactive: 0.366
14,GGAGUUCCUUUGCAACCAATT against NAB1,inactive: -0.67
15,GCAUAGCCCUCAACAAGAATT against IRF6,active: -1.79
16,GCCUAUAACAUGCAAACUUTT against HOXC5,inactive: 0.507
17,AGUGCAGACUCAAGACUUATT against EPOR,inactive: -0.084
18,GCUACGGGCUGAGAUUGAATT against KRT76,inactive: 0.726
19,GAGUAAAAGAGAUUGGAGATT against SIRPD,inactive: -0.257
20,GUAACAACAUCAUCCUAGATT against HSPG2,inactive: 0.478
21,GCUACUACCUGGUGGUCUATT against SLC19A1,inactive: 0
22,UGAGUUCACCGACCUCAAUTT against PSCD2,inactive: -0.126

row,Sequence,median seed-adjusted z-score
1,GGCUACAACUUAUAGAGAUTT against LRRTM2,inactive: 0.508
2,CAGUUUGUAUUGAAGGGUATT against RNF150,inactive: 0.478
3,CCAAAUUUGCCUAACCAGATT against RUNX2,inactive: 0.335
4,GCUGAAGGCUUAUGAGUAUTT against KCNV2,active: -1.13
5,ACAACUUCGUCACAGAAAATT against AMBP,inactive: -0.679
6,CCGUAACUCUAGUACAGCUTT against CREB1,inactive: 0.391
7,GCUACUCCAUUGUCACUCATT against CD300LF,inactive: -0.264
8,GCGUUACGCUGAGAGUAAATT against CXCL6,inactive: 0.802
9,GAAAGACUCUUACCAUUUUTT against SSBP4,inactive: 0.254
10,CAGAUGUUGUGGUAGCUCATT against SIP1,inactive: -0.443
11,GGAAAUCGUUUAAUCACAATT against ZNF776,inactive: -0.394
12,GAUACGGUCCAGAAGCUUATT against NUF2,inactive: -0.658
13,GCACAAUACCGCAUCAGUATT against PFKL,inactive: 0
14,CAGAGAACCCAUUACAUCATT against HADH,active: 1.11
15,UGAGGACAAUGAUAACAGUTT against GGA3,inactive: -0.239
16,AAACCAAGCCGAUGAAGAATT against NFYA,inactive: 0.437
17,GCAAGAAAAAUCUAAGGAATT against ZNF57,inactive: 0
18,GGAGCACAGAGGCUCAGAATT against TNFRSF13B,inactive: 0.152
19,AGAUCUAUUUUCGAGGGAATT against UNQ9391,inactive: -0.312
20,GGCCUACAACGAAAGUGAATT against CAMKK1,inactive: 0
